{
  "source": "patent US7109370B2",
  "about": "“Substituted phenylketoenols” (Bayer Aktiengesellschaft, priority 1997, dated 2006)",
  "test_system": "Aphis fabae",
  "assay": "Critical concentration test/root-systemic action, Aphis fabae",
  "assay_type": "in vivo",
  "settings": "20 ppm active compound in soil; broad beans; populated after 7 days, evaluated after a further 6 days",
  "method": "Critical Concentration Test/Root-Systemic Action\nTo produce a suitable preparation of active compound, 1 part by weight of active compound is mixed with the stated amount of solvent and the stated amount of emulsifier, and the concentrate is diluted with water to the desired concentration.\nThe preparation of active compound is intimately mixed with soil. The concentration of the active compound in the preparation is of practically no importance here, only the amount by weight of active compound per unit volume of soil, which is given in ppm (=mg/l), being decisive. The treated soil is transferred into pots and these are planted with pregerminated broad beans. The active compound can in this way be taken up from the soil by the roots of the plants and be transported into the leaves.\nAfter a further 6 days, evaluation is carried out by counting or estimating the dead animals. The root-systemic action of the active compound is deduced from the mortality figures. It is 100% if all the test animals have been killed and 0% if just as many test insects are still alive as in the case of the untreated control.",
  "note": "Some of these results come from one statement about several compounds together.",
  "data": [
    {"smiles": "Cc1ccc(C2=C(O)C3(CCOC(C)C3)NC2=O)c(C)c1", "note": "(single isomer, unassigned) [I-a-4]", "values": [
      {"measurement": "root-systemic effect (mortality)", "value": 100, "unit": "%"}
    ]},
    {"smiles": "Cc1cc(Cl)cc(C)c1C1=C(O)C2(CCOC(C)C2)NC1=O", "note": "(single isomer, unassigned) [I-a-16]", "values": [
      {"measurement": "root-systemic effect (mortality)", "value": 100, "unit": "%"}
    ]},
    {"smiles": "Cc1ccc(C2=C(OC(=O)C(C)C)C3(CCOC(C)C3)NC2=O)c(C)c1", "note": "(single isomer, unassigned) [I-b-4]", "values": [
      {"measurement": "root-systemic effect (mortality)", "value": 100, "unit": "%"}
    ]},
    {"smiles": "Cc1cc(Cl)ccc1C1=C(OC(=O)C(C)C)C2(CCOC(C)C2)NC1=O", "note": "(single isomer, unassigned) [I-b-17]", "values": [
      {"measurement": "root-systemic effect (mortality)", "value": 100, "unit": "%"}
    ]},
    {"smiles": "Cc1cc(Cl)cc(C)c1C1=C(OC(=O)C(C)C)C2(CCOC(C)C2)NC1=O", "note": "(centres unmarked) [I-b-25]", "values": [
      {"measurement": "root-systemic effect (mortality)", "value": 100, "unit": "%"}
    ]},
    {"smiles": "Cc1cc(C)c(C2=C(OC(=O)C(C)C)C3(CCOC(C)C3)NC2=O)c(C)c1", "note": "(single isomer, unassigned) [I-b-3]", "values": [
      {"measurement": "root-systemic effect (mortality)", "value": 100, "unit": "%"}
    ]},
    {"smiles": "CC(=O)OC1=C(c2c(C)cc(C)cc2C)C(=O)NC12CCOC(C)C2", "note": "(single isomer, unassigned) [I-b-5]", "values": [
      {"measurement": "root-systemic effect (mortality)", "value": 100, "unit": "%"}
    ]},
    {"smiles": "CCOC(=O)OC1=C(c2c(C)cc(C)cc2C)C(=O)NC12CCOC(C)C2", "note": "(centres unmarked) [I-c-2]", "values": [
      {"measurement": "root-systemic effect (mortality)", "value": 100, "unit": "%"}
    ]}
  ]
}
